The target in experiment [1] is TuMV VPg fused to the YFP N-terminal moiety (p101-YFN, BiFC) (turnip mosaic virus, isolate YC5). Put plainly: split reporter; BiFC with split YFP in agroinfiltrated N. benthamiana leaves; TuMV proteins with the YFP N-terminal moiety, host proteins with the YFP C-terminal moiety; confocal microscopy after 48 h.
Experiment [2] deals with TuMV CI fused to the YFP N-terminal moiety (p101-YFN, BiFC) (turnip mosaic virus, isolate YC5). The description is as above.

Drawing on PMC9834402, this text covers binding for two molecules.

No constants are given. Whether binding was seen depends on the method and setting. In cells and extracts the contact can be indirect. A result given as binding can be weak or reduced; the word gives no strength. Where a sequence is shown, tags or fusion partners need not be part of it.

B1: eukaryotic translation initiation factor eIF(iso)4E fused to the YFP C-terminal moiety (p101-YFC, BiFC) (protein, UniProt O04663 1-198)
chain: MATDDVNEPLPAAAELPATEAEKQPHKLERKWSFWFDNQSKKGAAWGASLRKAYTFDTVEDFWGLHETIFQTSKLTANAEIHLFKAGVEPKWEDPECANGGKWTWVVTANRKEALDKGWLETLMALIGEQFDEADEICGVVASVRPQSKQDKLSLWTRTKSNEAVLMGIGKKWKEILDVTDKITFNNHDDSRRSRFTV
Take B1: the binding result in experiment [1] is given as “binds”.

B2: METHYL-CPG-BINDING DOMAIN PROTEIN 5 (MBD5) fused to the YFP C-terminal moiety (p101-YFC, BiFC) (protein, UniProt Q9SNC0 1-182)
chain: MSNGTDQAQPPPENPATPVDSKSRKRATPGDDNWLPPDWRTEIRVRTSGTKAGTVDKFYYEPITGRKFRSKNEVLYYLEHGTPKKKSVKTAENGDSHSEHSEGRGSARRQTKSNKKVTEPPPKPLNFDFLNVPEKVTWTGINGSEEAWLPFIGDYKIQESVSQDWDRVFTLVTSQNAGKTMF
With B2, the binding entry in experiment [2] and in experiment [1] was “binds” in each case.
